Assay results as given in the supplement of paper PMC5949888.
Most values lie at the floor of the assay. Slopes are relative: functional sequences can read slightly below zero.

Test system: Saccharomyces cerevisiae PS128 hsf1 delta, HSF1(1-493) fusion
Experiment: growth estimate (transactivation domain function in HSF1 fusion, heat-shock survival) (a.u. (slope of normalised read count over time)); higher = stronger growth at 37°C, i.e. more transactivation activity
Conditions: library: random library

Row | Substance | growth estimate
1 | PLSGDAKLRTGCD | < -0.25
2 | PLSKTPPPRLIAALKRSAAT | < -0.25
3 | PLSLKLFYVLGPNHEEVVLP | < -0.25
4 | PLSQ | < -0.25
5 | PLVFGGWLMAEL | < -0.25
6 | PLVLPWTSTSGGETVLL | < -0.25
7 | PLWGLYNIRPSMLRSVRAD | < -0.251
8 | PLYLDQVPPGG | -0.245
9 | PLYRQLQLCEYPATHGFCPA | < -0.25
10 | PLYSFTIGRYAGILNHQTFR | < -0.25
11 | PMIRTRQMVSGPGTRED | < -0.25
12 | PMISGLFRTKMGCKGARSKS | < -0.25
13 | PMTSPPGVGGS | < -0.25
14 | PNAIKTGLSVLMLDKPRDGT | < -0.25
15 | PNCLPVR | < -0.25
16 | PNCRKTGRGRGRVTWSFTSS | < -0.25
17 | PNCYVSV | < -0.25
18 | PNG | < -0.25
19 | PNGYRHKA | -0.127
20 | PNIANKFTPSTAGTGPNIRQ | < -0.25
21 | PNLSNCPIVSVPCQITATSK | < -0.25
22 | PNP | < -0.25
23 | PNRRRGYFAMVWIVNGHRLK | < -0.25
24 | PNSDMRSAHLSPPCPVSTVL | < -0.25
25 | PNSDRIAFKDGRTGKVNIAC | < -0.25

Row | Substance | growth estimate
26 | PNSFAAIRVDVR | < -0.25
27 | PNSRSLCSSQAACSPIPGSI | < -0.25
28 | PNVCSTMGTAIFYARCGIRV | < -0.25
29 | PNVGHLLSVGSRVNLELTPW | < -0.25
30 | PNVMLKE | -0.197
31 | PNYLMLLASQQIALGSTSRA | < -0.25
32 | PPASPQWVGSRRCAKASRPM | < -0.25
33 | PPGGGWHSG | < -0.25
34 | PPGGLMRT | < -0.25
35 | PPGV | < -0.25
36 | PPHSG | < -0.25
37 | PPLLTVTGRLPESQLSEERV | < -0.25
38 | PPLPRGDLDRSIGR | < -0.25
39 | PPLSSMSRSCVIRVGRA | < -0.25
40 | PPLVSTVPEGTPLLQKPPLA | < -0.25
41 | PPLYLVSARIRSSGASLSSV | < -0.25
42 | PPMCWKKKHAYNMSLRPFSG | -0.219
43 | PPMVLGIGTAYHDLGCFDDE | < -0.25
44 | PPNIRSEFSERTQSDITCFG | < -0.25
45 | PPPLLRPFRFRNMPLLPG | < -0.25
46 | PPPLRFTDNVPPGGTRCPCP | < -0.25
47 | PPPQREREDKERVFEATAAA | < -0.25
48 | PPQCHGKFL | < -0.25
49 | PPQSLRSCWAGYRYWMGYTQ | < -0.25
50 | PPREVRACPM | < -0.25

Row | Substance | growth estimate
51 | PPRLTDVAP | < -0.25
52 | PPSLKASRN | < -0.25
53 | PPSLKYGTSQGDDVRIRKKS | < -0.25
54 | PPSLPDWAVFWRNTDNCS | 0.388
55 | PPSTMRKALHLPGGI | < -0.25
56 | PPTPIQREPRGVECR | < -0.25
57 | PPTVNSSLREISGRDFCTGV | < -0.25
58 | PPVARVGQVLRMHLDTCPNV | < -0.25
59 | PPVGAETPGHGPNAVKRSIR | < -0.25
60 | PPVWRPCLTSICLKVHSYGP | < -0.25
61 | PPVYVRDIVIFFSRPLSPED | < -0.25
62 | PQAFDRGLLFP | -0.245
63 | PQAGGT | < -0.25
64 | PQCLPAFNGTPSGKTNRQSF | < -0.25
65 | PQHALLSKHPNS | < -0.25
66 | PQI | < -0.25
67 | PQKTKAYGTA | < -0.25
68 | PQLSAVSPPDKDVRGTQTAC | < -0.25
69 | PQQALMSRVAATGLVPA | < -0.25
70 | PQRSPVEWKFGGFRETSSVI | < -0.25
71 | PQSSPWSLGAGAVLANYGYQ | < -0.25
72 | PQT | < -0.25
73 | PQTVLRSGAVDLITATLLC | < -0.25
74 | PQWVNSGTSTPNALLAGGNG | < -0.25
75 | PQYSLQQQS | < -0.25

Row | Substance | growth estimate
76 | PRALRYVGLS | < -0.25
77 | PRALVRQPCAS | < -0.25
78 | PRAVNL | < -0.25
79 | PRAVQSERVLVQAQSKMAYP | < -0.25
80 | PRCFTVKIECPRRLILGPS | < -0.25
81 | PRCSLFSR | < -0.25
82 | PREEDTWYAKDPHGTF | < -0.25
83 | PRFLTQKGYCSVEGHWQIIK | < -0.25
84 | PRFNGAAVCLRSECWLENEG | < -0.25
85 | PRGAIRARLH | < -0.25
86 | PRH | < -0.25
87 | PRHEERI | < -0.25
88 | PRIAHYADRSRGY | < -0.25
89 | PRIESFVGLRDTKVYGHSTL | < -0.25
90 | PRIGSTSIVRRVCAMITGSA | < -0.25
91 | PRIVA | < -0.25
92 | PRK | < -0.25
93 | PRKAGSGLTAGLNANFTNLL | < -0.25
94 | PRKEDVSRNTSSASDRVAGQ | < -0.25
95 | PRKGGLVCRRRSAPPGTSNS | < -0.25
96 | PRKLKHRVKFEVEYGNLSTM | < -0.25
97 | PRKTGSTNHKREMSGRATSR | < -0.25
98 | PRLLDALKLGSHCPCQT | < -0.25
99 | PRLPRNHQDRHSRGQLREAR | -0.243
100 | PRMGQTG | < -0.25

Row | Substance | growth estimate
101 | PRMSVRFE | < -0.25
102 | PRNFTAHHGGARYGFEVARK | -0.19
103 | PRPDLIIE | < -0.25
104 | PRPFDPALFGVRF | < -0.25
105 | PRPGPWLVWVRQPWVRLPLC | -0.21
106 | PRR | < -0.25
107 | PRRG | < -0.25
108 | PRRNRPTRLPQLSRPSRTRA | < -0.25
109 | PRRTHRGSGNCPFRH | < -0.25
110 | PRRTSGSHDPHGFKAGFPRV | < -0.25
111 | PRRVLKRMDPQQVWASLRGN | < -0.25
112 | PRSDAL | < -0.25
113 | PRSPTQRKQVRTPL | < -0.25
114 | PRSTRESRVETRRRPRAIKN | < -0.25
115 | PRSVRNICGTRTRQLLKCKS | < -0.25
116 | PRTFRAQIGFRDHVLACVDG | < -0.25
117 | PRTLLIALLPDAPRQLMRRL | < -0.25
118 | PRTLLKTTCSDAIASRVRPG | < -0.25
119 | PRTNGSYNVRCGTQALAVLA | < -0.25
120 | PRVCHALYGCYLTGYHGVSE | < -0.25
121 | PRVLGPLGVSYQTGLSQAVI | < -0.25
122 | PRWYLPPWLDTLYVPYRLTV | < -0.25
123 | PRYDPKSELRTPIEVLPPPP | < -0.25
124 | PRYLSRSGKRRRRSNCYCPS | < -0.25
125 | PRYVLFNCLCRHS | < -0.25

Pulled one by one from above, 2 records:
Row | Substance | growth estimate
121 | PRVLGPLGVSYQTGLSQAVI | < -0.25
120 | PRVCHALYGCYLTGYHGVSE | < -0.25

(cont.)

Row | Substance | growth estimate
126 | PSAAHAATRKLPL | < -0.25
127 | PSALGVSQAPPGCE | < -0.25
128 | PSCPIRGGFSGHSWGFRLPS | < -0.25
129 | PSCSLPVRSPLLKECAAQIP | < -0.25
130 | PSDWEYLGSLSSS | < -0.25
131 | PSEPEETLAIDVISSCDALC | < -0.25
132 | PSERCYI | < -0.25
133 | PSFKDPAIRGTLPT | < -0.25
134 | PSGQLLARRHTLAPWTDARK | < -0.25
135 | PSGYRRMR | < -0.25
136 | PSHGSDVGG | < -0.25
137 | PSHL | < -0.25
138 | PSHPGRTQSDHVY | < -0.25
139 | PSIMGMASRFTTS | < -0.25
140 | PSKHEFQGYAREGAHSRQCR | < -0.25
141 | PSKKVAKAGRCESPCRRLEY | < -0.25
142 | PSKKYEMRPLTGGYAD | < -0.25
143 | PSKVSATG | < -0.25
144 | PSLPIASREDNGPAIRSMTQ | < -0.25
145 | PSLWSVTH | < -0.25
146 | PSLWVLMHNVIFCPGMWLQG | -0.239
147 | PSMHIVP | < -0.25
148 | PSNCMAG | < -0.25
149 | PSNL | < -0.25
150 | PSNQTSIRTIGKKKIAPSLN | < -0.25

Row | Substance | growth estimate
151 | PSNRAYGLRRLSHSPLGTIG | < -0.25
152 | PSNSPYRCIDGFFRECPGYS | < -0.25
153 | PSPQRGGLSRSRGPG | < -0.25
154 | PSPVQNAGCGVFA | < -0.25
155 | PSQNCERS | < -0.25
156 | PSRCLRGGCSVCLPVLYTHK | < -0.25
157 | PSRDRAAVEP | -0.235
158 | PSREATESRFYPCLRYMFPS | < -0.25
159 | PSRQVG | < -0.25
160 | PSRRI | < -0.25
161 | PSRRWDSAAGHFAPIVDVIP | < -0.25
162 | PSRSACM | < -0.25
163 | PSRSIQ | < -0.25
164 | PSRSLLHSR | < -0.25
165 | PSRTGKLG | < -0.25
166 | PSSGLGVRSCGPWCSAPSPP | < -0.25
167 | PSSNQEGFVFTHRRMLHTGP | < -0.25
168 | PSSRGHCKAHMRKFCMW | < -0.25
169 | PSSRPGFIRIGFRSSMCR | < -0.25
170 | PSSVGRLVGVTI | < -0.25
171 | PSSVLAGSKSR | < -0.25
172 | PSTILGYRHFREEMPSCC | < -0.25
173 | PSTRRPLGR | < -0.25
174 | PSVFSPGDQSRTGGV | < -0.25
175 | PSVTRRE | < -0.25

Looked up above.
growth estimate with PQTVLRSGAVDLITATLLC is entered as < -0.25
growth estimate with PSRSACM is entered as < -0.25
growth estimate with PSNCMAG is entered as < -0.25
growth estimate with PRAVQSERVLVQAQSKMAYP is entered as < -0.25
growth estimate with PSNSPYRCIDGFFRECPGYS is entered as < -0.25
growth estimate with PPSLKASRN is entered as < -0.25
growth estimate with PPVWRPCLTSICLKVHSYGP is entered as < -0.25

Additional entries.

Row | Substance | growth estimate
176 | PSWKHGPYNQYM | < -0.25
177 | PSYIRRL | < -0.25
178 | PSYSPHGLYFSYDLAPLTRL | < -0.25
179 | PTAPSRVLIRRLIIACVGAS | < -0.25
180 | PTASRL | < -0.25
181 | PTATRDKPT | < -0.25
182 | PTCLLVGRKSRMGLHRFVVS | < -0.25
183 | PTDRKGRNPCPEFWLFK | < -0.25
184 | PTE | < -0.25
185 | PTEQSDIGPCISLYWTGVSA | < -0.25
186 | PTFRQIWKVGVCQVYH | < -0.25
187 | PTFS | -0.243
188 | PTGACRISSAFAPDL | < -0.25
189 | PTGGVMARQARHS | < -0.25
190 | PTGPKGTLACTNPKCRAQTI | < -0.25
191 | PTHSA | < -0.25
192 | PTHSPNQSCVGNPERVRCQV | < -0.25
193 | PTHVRIWHSLDFNSRATAAE | < -0.25
194 | PTIQVT | < -0.25
195 | PTISRGDAHSSLKRISD | < -0.25
196 | PTLSCMARSIGTRHRCEQFR | < -0.25
197 | PTNRTLGPR | < -0.25
198 | PTQTNTQVGLI | < -0.25
199 | PTSFRSHSP | < -0.25
